Assay [1] has as its target Arabidopsis thaliana purple acid phosphatase 2 (BiFC fusion) (Arabidopsis thaliana). The assay is described as follows: split reporter.
Assay [2] deals with Arabidopsis thaliana purple acid phosphatase 2 (Arabidopsis thaliana). The assay is described as follows: two-hybrid.

These are yes or no findings as the source states them, for the method shown. Binding can be weak; no strength is given. For some assays here: Binding seen in cells or lysates may run through a third protein. For some assays here: Sequences can lack the tags named with a protein.

B1: ferredoxin/thioredoxin reductase subunit A2 (BiFC fusion) (protein, UniProt Q8LBP6 72-184)
chain: CDIAVKSAASVDADADLSSSTSLETEEDEKAKEKIGARVRVTVPLKVYHVVRVPEVELMGMEGFIKDYVVLWKGKKISANLPFKVQFVKEIEGRGPVKFFTHLKEDEFELIDP
For B1, the binding result in assay [1] is on record as “binds”.

B2: ferredoxin/thioredoxin reductase subunit A2 (protein, UniProt Q8LBP6 1-184)
chain: MTNSYALSPAIIAAVRPPASQDYLVAASLSGRKSINSSSSSIFVPISLSTSYGRSKCAFSISRKNPKSTIRCDIAVKSAASVDADADLSSSTSLETEEDEKAKEKIGARVRVTVPLKVYHVVRVPEVELMGMEGFIKDYVVLWKGKKISANLPFKVQFVKEIEGRGPVKFFTHLKEDEFELIDP
Turning to B2, the binding entry in assay [2] is “binds”.

B3: FTRB (BiFC fusion) (protein, UniProt Q9SJ89 32-146)
chain: AKTEPSEKSVEIMRKFSEQYARRSGTYFCVDKGVTSVVIKGLAEHKDSYGAPLCPCRHYDDKAAEVGQGFWNCPCVPMRERKECHCMLFLTPDNDFAGKDQTITSDEIKETTANM
As to B3, in assay [1], the binding result is listed as “binds”.

B4: FTRA1 (protein, UniProt Q9FHL4 1-182)
chain: MSSQIALSPAIAAAIRRPSSHDCLSASATTATATPMALKSCIVAPLSLFTSQSQIKHSSSRKTSRTTIRCDVAIKSADSINADANPSSSPSSEEEIEAEAKAKIGSRVRVTAPLKVYHVNRVPEVDLEGMEGKLKDYVAVWKGKRISANLPYKIEFFKEIEGRGLVKFVSHLKEDEFEFIDQ
Regarding B4, the binding entry in assay [2] was “no binding”.

B5: FTRB (protein, UniProt Q9SJ89 1-146)
chain: MNLQAVSCSFGFLSSPLGVTPRTSFRRFVIRAKTEPSEKSVEIMRKFSEQYARRSGTYFCVDKGVTSVVIKGLAEHKDSYGAPLCPCRHYDDKAAEVGQGFWNCPCVPMRERKECHCMLFLTPDNDFAGKDQTITSDEIKETTANM
Regarding B5, the binding entry in assay [2] is on record as “binds”.

These data come from doi:10.1101/2020.09.09.289967.
